# From the supplement of paper PMC8728848
# Some of the results follow.
# B1: Nc3LysM-2 (protein)
# chain: AHVLQARQSVSCDFATAANTGDTCASFAAAWGITEAAFAKLNPGVSCPGNLIAGSEYCVIGTVSTGAPTTTKAATTSTTPPTTTTTTKATTLSTSTTSVSPTGPSPQMPSITSTCNKFYQVQSGDGCWSIEQAQGVSASDFMAWNKAVDAQCDNLWLGYYVCVGVKGGSSPPPTTTTKPASSSAPTPQMPNTVSNCKKFHKVVSGDGCWAIEQAAGISASDFAKWNPYVDAACDNLWLGYYVCIGV
# Legend:
# Experiment in all cases: glycan array binding signal (z-score within array); higher = stronger binding
# Conditions in all cases: glycan notation: IUPAC condensed, linker removed
# [1] = target: Gal(b1-4)GlcNAc(b1-3)Gal(b1-4)GlcNAc(b1-3)Gal(b1-4)GlcNAc(b1-3)Gal(b1-4)GlcNAc(b1-2)Man(a1-3)[Gal(b1-4)GlcNAc(b1-3)Gal(b1-4)GlcNAc(b1-3)Gal(b1-4)GlcNAc(b1-3)Gal(b1-4)GlcNAc(b1-2)Man(a1-6)]Man(b1-4)GlcNAc(b1-4)[Fuc(a1-6)]GlcNAc
# Summary of the method: (§1)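 Glycan array data came from 3228 arrays in the Consortium for Functional Glycomics database, and only arrays with an available protein sequence were kept. Glycan names were put into IUPAC-condensed notation, and columns mapping to the same glycan were averaged. The binding signal is a within-array Z-score, averaged across arrays of one protein sequence run at different concentrations or buffers and across linkers. A negative Z-score can be read as non-binding.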
# [2] = target: Gal(b1-4)GlcNAc(b1-3)Gal(b1-4)GlcNAc(b1-3)Gal(b1-4)GlcNAc(b1-3)Gal(b1-4)GlcNAc(b1-2)[Gal(b1-4)GlcNAc(b1-3)Gal(b1-4)GlcNAc(b1-3)Gal(b1-4)GlcNAc(b1-3)Gal(b1-4)GlcNAc(b1-6)]Man(a1-6)[Gal(b1-4)GlcNAc(b1-3)Gal(b1-4)GlcNAc(b1-3)Gal(b1-4)GlcNAc(b1-3)Gal(b1-4)GlcNAc(b1-2)Man(a1-3)]Man(b1-4)GlcNAc(b1-4)[Fuc(a1-6)]GlcNAc
# Summary of the method: as §1
# [3] = target: Gal(b1-4)GlcNAc(b1-3)Gal(b1-4)GlcNAc(b1-3)Gal(b1-4)GlcNAc(b1-3)Gal(b1-4)GlcNAc(b1-3)Gal(b1-4)GlcNAc(b1-2)Man(a1-3)[Gal(b1-4)GlcNAc(b1-3)Gal(b1-4)GlcNAc(b1-3)Gal(b1-4)GlcNAc(b1-3)Gal(b1-4)GlcNAc(b1-3)Gal(b1-4)GlcNAc(b1-2)Man(a1-6)]Man(b1-4)GlcNAc(b1-4)GlcNAc
# Summary of the method: as §1
# [4] = target: Gal(b1-4)GlcNAc(b1-3)Gal(b1-4)GlcNAc(b1-3)Gal(b1-4)GlcNAc(b1-3)Gal(b1-4)GlcNAc(b1-3)Gal(b1-4)GlcNAc(b1-2)Man(a1-3)[Gal(b1-4)GlcNAc(b1-3)Gal(b1-4)GlcNAc(b1-3)Gal(b1-4)GlcNAc(b1-3)Gal(b1-4)GlcNAc(b1-3)Gal(b1-4)GlcNAc(b1-2)Man(a1-6)]Man(b1-4)GlcNAc(b1-4)[Fuc(a1-6)]GlcNAc
# Summary of the method: as §1
# [5] = target: Gal(b1-4)GlcNAc(b1-3)Gal(b1-4)GlcNAc(b1-3)Gal(b1-4)GlcNAc(b1-3)Gal(b1-4)GlcNAc(b1-3)Gal(b1-4)GlcNAc(b1-2)[Gal(b1-4)GlcNAc(b1-3)Gal(b1-4)GlcNAc(b1-3)Gal(b1-4)GlcNAc(b1-3)Gal(b1-4)GlcNAc(b1-3)Gal(b1-4)GlcNAc(b1-6)]Man(a1-6)[Gal(b1-4)GlcNAc(b1-3)Gal(b1-4)GlcNAc(b1-3)Gal(b1-4)GlcNAc(b1-3)Gal(b1-4)GlcNAc(b1-3)Gal(b1-4)GlcNAc(b1-2)Man(a1-3)]Man(b1-4)GlcNAc(b1-4)[Fuc(a1-6)]GlcNAc
# Summary of the method: as §1
# [6] = target: Gal(b1-4)GlcNAc(b1-3)Gal(b1-4)GlcNAc(b1-3)Gal(b1-4)GlcNAc(b1-3)Gal(b1-4)GlcNAc(b1-3)Gal(b1-4)GlcNAc(b1-3)Gal(b1-4)GlcNAc(b1-2)Man(a1-3)[Gal(b1-4)GlcNAc(b1-3)Gal(b1-4)GlcNAc(b1-3)Gal(b1-4)GlcNAc(b1-3)Gal(b1-4)GlcNAc(b1-3)Gal(b1-4)GlcNAc(b1-3)Gal(b1-4)GlcNAc(b1-2)Man(a1-6)]Man(b1-4)GlcNAc(b1-4)GlcNAc
# Summary of the method: as §1
# [7] = target: Gal(b1-4)GlcNAc(b1-3)Gal(b1-4)GlcNAc(b1-3)GalNAc
# Summary of the method: as §1
# [8] = target: Gal(b1-4)GlcNAc(b1-3)Gal(b1-4)GlcNAc(b1-3)[Gal(b1-4)GlcNAc(b1-3)Gal(b1-4)GlcNAc(b1-6)]GalNAc
# Summary of the method: as §1
# [9] = target: Gal(b1-4)GlcNAc(b1-3)Gal(b1-4)GlcNAc(b1-6)[Gal(b1-3)]GalNAc
# Summary of the method: as §1
# [10] = target: Gal(b1-4)GlcNAc(b1-3)Gal(b1-4)[Fuc(a1-3)]GlcNAc(b1-3)Gal(b1-4)[Fuc(a1-3)]GlcNAc
# Summary of the method: as §1
# [11] = target: Gal(b1-4)GlcNAc(b1-3)GalNAc
# Summary of the method: as §1
# [12] = target: Gal(b1-4)GlcNAc(b1-3)[Fuc(a1-3)GlcNAc(b1-6)]Gal(b1-4)Glc
# Summary of the method: as §1
# [13] = target: Gal(b1-4)GlcNAc(b1-3)[Gal(b1-4)GlcNAc(b1-6)]Gal(b1-4)GlcNAc
# Summary of the method: as §1
# [14] = target: Gal(b1-4)GlcNAc(b1-3)[GlcNAc(b1-6)]Gal(b1-4)GlcNAc
# Summary of the method: as §1
# [15] = target: Gal(b1-4)GlcNAc(b1-6)Gal(b1-4)GlcNAc
# Summary of the method: as §1
# [16] = target: Gal(b1-4)GlcNAc(b1-6)GalNAc
# Summary of the method: as §1
# [17] = target: Gal(b1-4)GlcNAc(b1-6)[Gal(b1-3)]GalNAc
# Summary of the method: as §1
# [18] = target: Gal(b1-4)GlcNAc(b1-6)[Gal(b1-4)GlcNAc(b1-3)]GalNAc
# Summary of the method: as §1
# Gal(b1-4)GlcNAc6P = target: Gal(b1-4)GlcNAc6P
# Summary of the method: as §1
# Gal(b1-6)Gal = target: Gal(b1-6)Gal
# Summary of the method: as §1
# Gal3S(b1-3)GalNAc = target: Gal3S(b1-3)GalNAc
# Summary of the method: as §1
# Gal3S(b1-3)GlcNAc = target: Gal3S(b1-3)GlcNAc
# Summary of the method: as §1
# [19] = target: Gal3S(b1-3)[Fuc(a1-4)]GlcNAc
# Summary of the method: as §1
# Gal3S(b1-4)Glc = target: Gal3S(b1-4)Glc
# Summary of the method: as §1
# Gal3S(b1-4)Glc6S = target: Gal3S(b1-4)Glc6S
# Summary of the method: as §1
# Gal3S(b1-4)GlcNAc = target: Gal3S(b1-4)GlcNAc
# Summary of the method: as §1
# [20] = target: Gal3S(b1-4)[Fuc(a1-3)]Glc6S
# Summary of the method: as §1
# [21] = target: Gal3S(b1-4)[Fuc(a1-3)]GlcNAc
# Summary of the method: as §1
# [22] = target: Gal3S(b1-4)[Fuc(a1-3)]GlcNAc6S
# Summary of the method: as §1
# Gal3S4S(b1-4)GlcNAc = target: Gal3S4S(b1-4)GlcNAc
# Summary of the method: as §1
# Gal3S6S(b1-4)GlcNAc = target: Gal3S6S(b1-4)GlcNAc
# Summary of the method: as §1
# Gal3S6S(b1-4)GlcNAc6S = target: Gal3S6S(b1-4)GlcNAc6S
# Summary of the method: as §1
# Gal4S(b1-4)GlcNAc = target: Gal4S(b1-4)GlcNAc
# Summary of the method: as §1
# Gal4S6S(b1-4)GlcNAc = target: Gal4S6S(b1-4)GlcNAc
# Summary of the method: as §1
# Gal6P(b1-4)GlcNAc = target: Gal6P(b1-4)GlcNAc
# Summary of the method: as §1
# Gal6S(b1-3)GlcNAc = target: Gal6S(b1-3)GlcNAc
# Summary of the method: as §1
# Gal6S(b1-3)GlcNAc6S = target: Gal6S(b1-3)GlcNAc6S
# Summary of the method: as §1
# Gal6S(b1-4)Glc = target: Gal6S(b1-4)Glc
# Summary of the method: as §1
binder,measurement,setting,value
B1,glycan array binding signal (z-score),[1],1.77
same,glycan array binding signal (z-score),[2],0.832
same,glycan array binding signal (z-score),[3],-0.233
same,glycan array binding signal (z-score),[4],0.558
same,glycan array binding signal (z-score),[5],2.29
same,glycan array binding signal (z-score),[6],0.254
same,glycan array binding signal (z-score),[7],-1
same,glycan array binding signal (z-score),[8],0.109
same,glycan array binding signal (z-score),[9],-0.163
same,glycan array binding signal (z-score),[10],-0.357
same,glycan array binding signal (z-score),[11],-1.09
same,glycan array binding signal (z-score),[12],-0.719
same,glycan array binding signal (z-score),[13],0.733
same,glycan array binding signal (z-score),[14],-0.676
same,glycan array binding signal (z-score),[15],-0.253
same,glycan array binding signal (z-score),[16],-0.281
same,glycan array binding signal (z-score),[17],-0.655
same,glycan array binding signal (z-score),[18],0.159
same,glycan array binding signal (z-score),Gal(b1-4)GlcNAc6P,-0.517
same,glycan array binding signal (z-score),Gal(b1-6)Gal,0.212
same,glycan array binding signal (z-score),Gal3S(b1-3)GalNAc,0.389
same,glycan array binding signal (z-score),Gal3S(b1-3)GlcNAc,-0.735
same,glycan array binding signal (z-score),[19],0.035
same,glycan array binding signal (z-score),Gal3S(b1-4)Glc,1.72
same,glycan array binding signal (z-score),Gal3S(b1-4)Glc6S,0.225
same,glycan array binding signal (z-score),Gal3S(b1-4)GlcNAc,0.749
same,glycan array binding signal (z-score),[20],1.61
same,glycan array binding signal (z-score),[21],0.518
same,glycan array binding signal (z-score),[22],0.593
same,glycan array binding signal (z-score),Gal3S4S(b1-4)GlcNAc,-2.11
same,glycan array binding signal (z-score),Gal3S6S(b1-4)GlcNAc,-0.11
same,glycan array binding signal (z-score),Gal3S6S(b1-4)GlcNAc6S,-0.858
same,glycan array binding signal (z-score),Gal4S(b1-4)GlcNAc,-1.15
same,glycan array binding signal (z-score),Gal4S6S(b1-4)GlcNAc,0.412
same,glycan array binding signal (z-score),Gal6P(b1-4)GlcNAc,-0.044
same,glycan array binding signal (z-score),Gal6S(b1-3)GlcNAc,0.632
same,glycan array binding signal (z-score),Gal6S(b1-3)GlcNAc6S,-1.34
same,glycan array binding signal (z-score),Gal6S(b1-4)Glc,0.198

# 3 records picked at random from those above:
binder,measurement,setting,value
B1,glycan array binding signal (z-score),Gal3S4S(b1-4)GlcNAc,-2.11
same,glycan array binding signal (z-score),Gal4S(b1-4)GlcNAc,-1.15
same,glycan array binding signal (z-score),Gal(b1-4)GlcNAc6P,-0.517
